# Reference: PubChem BioAssay AID504791 (Drosophila RNAi Screening Center, 2011)
# Aim: 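Genes of the fly required for silencing by miRNA, siRNA or endo-siRNA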 (primary screen)
# System: Drosophila S2-derived reporter cells
# Reagents: long dsRNA against Drosophila genes, about 150-250 ng dsRNA per well (siRNA assay); about 80-120 ng (miRNA assay)
# Duration: about 5 days (siRNA assay); about 4 days (miRNA assay)
# Treatment: copper sulfate induction of reporters: 25 µM (siRNA assay); 200 mM stated (miRNA assay), 1-2 days before reading
# Measured: 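Per-well ratio of Renilla over firefly light, expressed relative to that plate's average ratio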
# Active means: 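First-pass picks had plate-scaled ratios over 1.5 for the siRNA assay, over 1.6 for the miRNA assay, or under 0.6; two distinct dsRNAs had to score alike on retest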
# The screen tested about 23,000 reagents; shown is a random part of those that have a named target and a result. Of all reagents, 199 (0.86%) were called active. 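Plate-scaled ratios behind the calls are not deposited; printed light signals are raw; many rows marked increased or decreased are still called inactive.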 A plus sign joins genes that one reagent is predicted to hit. Not given: the direction of the score.
The first 3 records as a preview:
gene,dsRNA,stable siRNA reporter change,"stable assay Renilla, run 1 (luminescence)","stable assay firefly, run 1 (luminescence)",call
term (terminus),DRSC21730,,8119,4.03e5,inactive
Obp50d (Odorant-binding protein 50d),DRSC05483,,6819,4.64e5,inactive
obst-H (obstructor-H),DRSC10935,,6399,3.68e5,inactive

The list itself, from the first entry:
gene,dsRNA,stable siRNA reporter change,"stable assay Renilla, run 1 (luminescence)","stable assay firefly, run 1 (luminescence)",call
term (terminus),DRSC21730,,8119,4.03e5,inactive
Obp50d (Odorant-binding protein 50d),DRSC05483,,6819,4.64e5,inactive
obst-H (obstructor-H),DRSC10935,,6399,3.68e5,inactive
obst-H (obstructor-H),DRSC10940,,6296,3.71e5,inactive
nopo (no poles),DRSC06918,,9212,2.66e5,inactive
CG13133,DRSC02230,,5771,4.05e5,inactive
CG32755,DRSC18397,,5327,2.92e5,inactive
CG6696,DRSC20004,,6404,5.40e5,inactive
CG3492,DRSC04373,,2.08e5,1.50e6,inactive
Taf2 (TBP-associated factor 2),DRSC11298,,6762,5.81e5,inactive
Buffy,DRSC05957,,5543,3.30e5,inactive
Naa20A (N(alpha)-acetyltransferase 20 A),DRSC19579,,8362,5.95e5,inactive
CG7639,DRSC07026,,6056,2.96e5,inactive
CG31862,DRSC01245,,4994,3.85e5,inactive
CG9517 (retired record),DRSC20192,,5271,3.33e5,inactive
CG9517 (retired record),DRSC20193,,5947,4.17e5,inactive
yellow-d2,DRSC04591,,7691,4.70e5,inactive
CG9254,DRSC01969,,8286,4.35e5,inactive
CG31647 (retired record),DRSC21903,,10034,6.00e5,inactive
CG32086,DRSC10586,,5975,3.42e5,inactive
CG4586,DRSC18373,,8148,5.15e5,inactive
to (takeout),DRSC17086,,6462,3.81e5,inactive
CG12523,DRSC09895,,4591,4.27e5,inactive
Cyp6a21 (Cytochrome P450 6a21),DRSC07381,,5639,3.30e5,inactive
CG8738,DRSC07256,,6171,3.42e5,inactive
UQCR-C1 (Ubiquinol-cytochrome c reductase core protein 1),DRSC15508,reporter ratio lowered past the hit cutoff,6479,5.72e5,inactive
CycB (Cyclin B),DRSC04605,,39619,3.54e5,inactive
Anp (Andropin),DRSC14112,,7323,5.70e5,inactive
Cnb (Centrobin),DRSC08569,,8783,2.60e5,inactive
Mst77F (Male-specific transcript 77F),DRSC11871,,7107,3.98e5,inactive
CG13197,DRSC06322,,6046,3.81e5,inactive
rad50,DRSC04523,,96288,4.04e5,inactive
CG9667,DRSC16535,,7387,4.80e5,inactive
CG42634 + CG42635,DRSC02450,,8286,3.91e5,inactive
